This passage reports step yield and conjugation yield results from patent EP0402852A1 (priority 1989, dated 1990).

The data set is described as follows: general procedure: solution-phase peptide synthesis; BOP/NMM (Examples 1-3); DCC/HOBT (Example 6). Particulars: for step yield: late stage modification step; for conjugation yield: conjugation step.

“And” between values parts separate entries of the source, which are not always exact repeats. Equal values may be shown once. Strings that start with PEPTIDE1 are HELM notation: dots part the residues, brackets hold end groups and non-standard residues.

For “PEPTIDE1{[4-BCEA-Bz].T.Q.W.A.V.G.H.L.M.[am]}$$$$V2.0”, the step yield (run 1) was 71% and 36%.

As for “PEPTIDE1{[ClCH2-Nle-Suc].T.Q.W.A.V.G.L.M.[am]}$$$$V2.0”, the conjugation yield is given as 40%.

On to “PEPTIDE1{[4-BCEA-Bz].T.Q.W.A.V.G.L.M.[am]}$$$$V2.0”, for which the conjugation yield (run 1) was 90% and 50%.

Substance “PEPTIDE1{[4-BCEA-Bz].T.Q.W.A.V.G.L.[Nle].[am]}$$$$V2.0” yielded a conjugation yield of 50%.

“PEPTIDE1{[ClEtN(NO)CO].T.Q.W.A.V.G.L.[Nle].[am]}$$$$V2.0” yielded a step yield of 73%.
